Laboratory results published in publication PMC5571105.
These are yes or no findings as the source states them, for the method shown. For some of these results: A result given as binding can be weak or reduced; the word gives no strength. For some of these results: In cells and extracts the contact can be indirect. For some of these results: Sequences can lack the tags named with a protein. Each block holds one binder with its values, some of them ahead of it.

Experiments:
[1] = molecular target: OsPHP3 (BiFC fusion) (rice); assay: split reporter; BiFC in onion epidermal peel cells, nEYFP and cEYFP fusions under the 2XCaMV35S promoter co-transformed by particle bombardment; YFP seen by confocal microscopy 12 hours post transfection; repeated three times
cEYFP-OsPHP2 (rice) = assay: as above
nEYFP-OsRR12 (rice) = assay: as above
[2] = molecular target: OsPHP1 (BiFC fusion) (rice); assay: as above
nEYFP-OsRR4 (rice) = assay: as above
OsPHP1 (rice) [3] = assay: two-hybrid; β-galactosidase filter lift assay (LacZ reporter) of the co-transformed yeast colonies, X-gal as substrate, 30 °C in the dark
OsPHP2 (rice) [4] = assay: as above
OsPHP3 (rice) [5] = assay: as above
OsPHP1 (rice) [6] = assay: two-hybrid; S. cerevisiae AH109; bait in pGBD-C1 (GAL4 binding domain; written as target), prey in pGAD-C1 (GAL4 activation domain; written as binder); serial dilutions spotted on triple drop-out medium with 5 mM 3-AT (HIS3) and quadruple drop-out medium (ADE2), 30 °C; growth on quadruple drop-out shows strong interaction
OsPHP2 (rice) [7] = assay: as above
OsPHP3 (rice) [8] = assay: as above
OsRR1 (rice) = assay: as above
OsRR12 (rice) = assay: as above
OsRR13 (rice) = assay: as above
OsRR4 (rice) = assay: as above
OsRR5 (rice) = assay: as above
OsRR6 (rice) = assay: as above

binding [1]: binds | binding (cEYFP-OsPHP2 (rice)): binds | binding (nEYFP-OsRR12 (rice)): binds
B1: OsRR24 (BiFC fusion) (protein, UniProt Q6H805 1-626)
chain: MTVEERQGRVGGHGVSGGGGGRDQFPVGMRVLAVDDDPTCLKILENLLLRCQYHVTTTGQAATALKLLRENKDQFDLVISDVHMPDMDGFKLLELVGLEMDLPVIMLSANGETQTVMKGITHGACDYLLKPVRLEQLRTIWQHVIRRKNCDAKNRGNDDDAGQKAQGMNNEGESIGANRNKRQSRKSRDENGDDGDDSDENSNENGDSSTQKKPRVVWSVELHRKFVAAVNQLGIEKAVPKKILDLMNVENITRENVASHLQKYRLYLKRLSTDASRQANLAAAFGGRNPAYINMNSFGNYNAYGRYRTVPTAGHTQANNILTRMNSPSAFGVHGLLHSQPIQLGHAQNNLSTSLNDLGGLNNGNMIRGAQMSTILTGPSGNSFPNISNGAPLATANRSLQPLESSNQQHLSRVHSSSADPFSTLVGESPQFPDLGRTTNTWQTAVPSNIQDRGHNDNMSQATLHMNGPKIEPVSSFTSSNQIPLLGNEMQGQVASLASNVPIAFNQDTSPFNYGSSTNSRDMLNNSHVFSNSSINTSLPNLSLDNPAVPRQTLDRGNTGIVSPMQDGRIHHQAVSNQLNYNDDLMRTTGLQRGLSGGLDDIVVDMFRPDREDDGVPYIDGDWELV

binding [2]: binds | binding [1]: binds | binding (cEYFP-OsPHP2 (rice)): binds | binding (nEYFP-OsRR4 (rice)): binds
B2: OsRR26 (BiFC fusion) (protein, UniProt Q5N6V8 1-582)
chain: MDATAFPYGLRVLVVDDDPTWLKILEKMLRKCSYEVTTCGLARVALDILRERKNKFDIVISDVNMPDMDGFKLLEHIGLEMDLPVIMMSIDGETSRVMKGVQHGACDYLLKPVRMKELRNIWQHVYRKKMHEVKEIEGNDSCDDLQILRNSFEGLDEKSLFMRSDSDTMRKRKDVDKDHADQESSDGNTVKKARVVWSVDLHQKFVNAVNQIGFDKVGPKKILDLMNVPGLTRENVASHLQKYRLYLSRLQKQNEERILGAARQDFSHKGTSENLNLRSSFQEQPSNIANGYPHASQNIQTQANMLDSQLEDTKSTVPLPVPDKKRTLASDAADSQNVTSASSLGGVLSFKSMPVNQDRKPSETMILECQAWTGGIPSKQFMQYPKHNHERCDLLGDYSCLPKPDLEHPVGPSNLYAPPPLISMSCGMEGDARDFSDVKPAIMDCIKSLSPALTCTVDSVSVQLSDSVVTSIDGDLKSSGVDGLPSIKDCCLDQTNSQGSLRPSQEPSIIGSTELASLPEDLPSYPLHGVSLENIGLSSIDLLNYSDAMILSGLQSNWYDDLEFSSEMMDYPSIDECLFASS

binding (OsPHP1 (rice) [3]): binds | binding (OsPHP2 (rice) [4]): binds | binding (OsPHP3 (rice) [5]): binds | binding (OsPHP1 (rice) [6]): binds | binding (OsPHP2 (rice) [7]): binds | binding (OsPHP3 (rice) [8]): binds weakly | binding (OsRR1 (rice)): no binding | binding (OsRR12 (rice)): no binding | binding (OsRR13 (rice)): no binding | binding (OsRR4 (rice)): no binding | binding (OsRR5 (rice)): no binding | binding (OsRR6 (rice)): no binding
B3: OsRR23 (protein, UniProt Q6K8X6 1-688)
chain: MRAAEERKGVVPAARRRDQFPVGMRVLAVDDDPVCLKVLETLLLRCQYHVTTTNQAAIALKMLRENRDMFDLVISDVHMPDMDGFKLLELVGLEMDLPVIMLSVNGETKTVLKGITHGACDYLLKPVRIEELRNIWQHVIRRKFSTRDRANLDFYEECNKPPNADSDHVHGHVTCGSPDQSGRPSKKRKEYCSEEEDEGEVNTQDIDDPSAPKKPRVVWSVELHRKFVAAVNQLGIDKAVPKRILELMNVEKLTRENVASHLQKYRLYLKRLSAVASQQVSIVAALGGRDPFLHMGGFEGLQGYQAFTSSAALSSFTPHGLLNSPRNNPAALGTQGVPASKSIQTMSGSHTLSHSINDANKYHLSLPGNQKGNLGQGLATSLGQTQMQQKWIHEETDDLSTILSGNGLSNGMSGTLQSVTSSPLLPQELAECTQAKIVSQPSIRTSSVSSEHIEGAVGVSSGLLESRVSQQSTIPLSGFSANGLLIHGSFNNTCANKLGGTSSSCAPARSSNDLMVARDTKGGASSFGGAMLLPPDTEQKYLNFGGGNGLKQKFDDRTADSLFDLKFVWSSVPSSQLASNIGAHHAMSQRWNNSSSNSSNIGARMIGQATSSGSTVIPQMKTDFLVSGDMAMPKNASDLSIPKLQSELSSSSCSFDGLLNSIVKVEKDDVTFSDDLGCGDFYSLGACI
